Values of other authors as cited in patent US9457022B2, “Methods and compositions for treating or preventing symptoms of hormonal variations” (priority 2010, dated 2016).
Some of these results come from one statement about several compounds together.

Tested on: hot flashes
Conditions: pilot studies; cited from earlier work

## COc1ccc(C(CN(C)C)C2(O)CCCCC2)cc1 (stereo not shown) [venlafaxine]
  Hot-flash score reduction: 55%-75%
